According to PubChem BioAssay AID743255 (National Center for Advancing Translational Sciences (NCATS), 2014):
Screen size: about 390,000 compounds; about 910 (0.23%) were called active. The shares of active, inactive and inconclusive entries below differ from those in the screen. Calls follow the shape of the dose curve; as a rule, active = well fitted inhibition curve with a large enough effect; inconclusive = small, poorly fitted or top-dose-only effect; inactive = no such curve, though single readings can be large or run the other way. A potency beside an inconclusive call is a rough fit, not a confirmed value.

Chains of the proteins cited; added tags and fusions are not shown. Lines headed by an entry give the natural chain unless they say otherwise; changes in a name come on top.
UniProt O94782: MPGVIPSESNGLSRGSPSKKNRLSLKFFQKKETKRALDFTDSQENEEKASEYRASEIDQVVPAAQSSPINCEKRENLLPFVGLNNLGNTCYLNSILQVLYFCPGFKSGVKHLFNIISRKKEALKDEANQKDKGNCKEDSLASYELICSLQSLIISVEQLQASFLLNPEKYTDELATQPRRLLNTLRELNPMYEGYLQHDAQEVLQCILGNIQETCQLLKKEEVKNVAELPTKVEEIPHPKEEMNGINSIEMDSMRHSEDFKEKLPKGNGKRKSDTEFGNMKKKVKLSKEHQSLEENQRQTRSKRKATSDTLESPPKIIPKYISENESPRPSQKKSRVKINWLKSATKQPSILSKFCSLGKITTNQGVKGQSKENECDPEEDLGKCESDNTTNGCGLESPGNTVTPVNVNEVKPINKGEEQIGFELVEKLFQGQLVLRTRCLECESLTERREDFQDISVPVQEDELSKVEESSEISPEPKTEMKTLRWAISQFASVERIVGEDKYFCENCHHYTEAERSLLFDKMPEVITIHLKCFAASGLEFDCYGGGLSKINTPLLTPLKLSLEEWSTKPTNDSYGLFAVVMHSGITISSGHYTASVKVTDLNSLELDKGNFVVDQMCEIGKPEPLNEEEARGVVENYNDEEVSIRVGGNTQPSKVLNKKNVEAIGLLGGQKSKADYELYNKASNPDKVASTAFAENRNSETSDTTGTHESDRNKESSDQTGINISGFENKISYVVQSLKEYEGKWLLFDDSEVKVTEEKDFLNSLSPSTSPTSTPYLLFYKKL

Target: Ubiquitin carboxyl-terminal hydrolase 1 (Homo sapiens) (UniProt O94782)
Assay: Inhibitors of USP1/UAF1: Primary Screen; also: nearly all actives have a fitted effect of over 60% in size
Settings: recombinant USP1/UAF1, Ub-Rhodamine cleavage fluorescence; activity change, negative = inhibition: at 57.1 µM (top of the series)
Method in brief: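 1 nM enzyme complex + cpd, 15 min RT; start with Ub-Rho 150nM final; kinetic fluorescence ex 480/em 540, 6 reads q60 s. Buffer 50mM HEPES pH 7.8, 0.5mM EDTA, 0.1 mg/ml BSA, 1mM TCEP, 0.01% Tween-20.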
% is scaled to controls: 0 for no effect and ±100 for the full control effect; potency is read from the fitted curve at half-maximal effect.

| SMILES | Potency | activity change, negative = inhibition |
| --- | --- | --- |
| CNC(=O)c1sc2ncccc2c1-n1cccc1 | inconclusive: 3.98 µM [inhibitor, partial curve] |  |
| CCN(CC)CCCNC(=O)c1cc2c(-c3ccc(Cl)cc3)nn(C)c2s1 |  | inactive: -17.2% |
| Cc1cc(NC(=O)Cn2nc(C)n3cccc3c2=O)ccc1Br | inconclusive: 35.5 µM [inhibitor, partial curve, poor fit] |  |
| CC(=O)Nc1cccc(/C(C)=N/Nc2ccc(S(=O)(=O)Nc3ccccc3C(=O)O)cc2[N+](=O)[O-])c1 | inconclusive: 35.5 µM [inhibitor, partial curve, poor fit] |  |
| COc1ccc2c(c1)[nH]c1c(N3CCSCC3)ncnc12 | inconclusive: 1.41 µM [inhibitor, full curve, poor fit] |  |
| CC(C)(C)N(Cc1ccccc1)C(=O)COC(=O)c1ccc(N2CCCC2=O)cc1 | inconclusive: 39.8 µM [inhibitor, single point] |  |
| OCc1ccc(O)c2ncccc12 |  | inactive: -9.88% |
| COC(=O)N1C(=O)[C@](CC(C)C)(c2ccccc2)N1C(=O)OC | inconclusive: 44.7 µM [inhibitor, partial curve, poor fit] |  |
| O=C(/C=C/c1ccco1)Nc1ccc(N2CCCC2)cc1 |  | inactive: -10.3% |
| CC1CCCCN1c1cc(C#N)c(C#N)cc1[N+](=O)[O-] (stereo not drawn) |  | inactive: 6.67% |
| Cc1cc(C)cc(NC(=O)C2CCC(CNS(=O)(=O)c3ccc4c(c3)C(C)(C)C(=O)N4C)CC2)c1 (stereo not drawn) | inconclusive: 15.8 µM [inhibitor, partial curve] |  |
| COc1ccc(NS(=O)(=O)c2ccc(N3CCOCC3)c(NC(=O)c3ccc(OC)cc3)c2)cc1 |  | inactive: -17.5% |
| O=C(NNC(=S)Nc1ccc(Cl)cc1Cl)c1ccc(N2CCOCC2)c([N+](=O)[O-])c1 |  | inactive: -18% |
| COc1ccc(-c2nc(Cn3c(SCc4ccccc4F)nc4ccncc43)c(C)o2)cc1OC |  | inactive: -17.6% |
| O=C(Nc1ccc(Cl)cc1)c1cc(S(=O)(=O)N2CCc3ccccc32)ccc1F | inconclusive: 8.91 µM [inhibitor, partial curve, poor fit] |  |
| Clc1cccc(-c2ccc(C=Nc3ccc(N4CCOCC4)cc3)o2)c1Cl | inconclusive: 44.7 µM [inhibitor, partial curve, poor fit] |  |
| Cc1snc(SCC(=O)c2ccc(Cl)cc2)c1C#N |  | inactive: -23% |

| SMILES | Potency | activity change, negative = inhibition |
| --- | --- | --- |
| Cc1cc(C)c2oc(C(=O)N(Cc3cccs3)C3CCS(=O)(=O)C3)cc(=O)c2c1 (stereo not drawn) |  | inactive: -21.9% |
| CCc1ccc(NC(=O)Nn2cnnc2)cc1 |  | inactive: -20.4% |
| C[C@H]1COC(=O)[C@@H](CC(=O)OC(C)(C)C)C/C=C\C[C@H](CC(=O)NCCO)C(=O)N1 | inconclusive: 20 µM [inhibitor, partial curve, poor fit] |  |
| c1ccc(Cn2nnnc2C(c2cccnc2)N2CCN(C3CCCCC3)CC2)cc1 (stereo not drawn) | inconclusive: 3.16 µM [inhibitor, partial curve] |  |
| CCN(CC)S(=O)(=O)c1ccc2c(c1)N(CC(=O)Nc1ccc(C)cc1C)C(=O)C1CCCN21 (stereo not drawn) |  | inactive: -11.9% |
| COc1cc(NC(=O)Cn2nc(-c3ccc(C)c(C)c3)ccc2=O)cc(OC)c1 | inconclusive: 12.6 µM [inhibitor, partial curve, poor fit] |  |
| CCNc1ccccc1CP(=O)(c1ccccc1)c1ccccc1O (stereo not drawn) | inconclusive: 17.8 µM [inhibitor, partial curve] |  |
| CC(C)(C)c1ccc(-c2cc(C(=O)NNC(=O)Nc3ccccc3)c3ccccc3n2)cc1 |  | inactive: -8.69% |
| COc1ccc(C(C)n2c(C)c3c(C)nnc(C)c3c2C)cc1 (stereo not drawn) | inconclusive: 7.94 µM [inhibitor, single point] |  |
| CCC(C)OC(=O)/C(C#N)=C\c1ccc(-c2cccc(C(F)(F)F)c2)o1 (stereo not drawn) | inconclusive: 20 µM [inhibitor, partial curve, poor fit] |  |
| O=C(NCCOc1ccc(F)cc1)c1ccccc1SCc1ccccc1 |  | inactive: -11.5% |
| CN(C(=O)CN1C(=O)CCSc2ccc(S(=O)(=O)N3CCCC3)cc21)c1ccccc1 | inconclusive: 22.4 µM [inhibitor, partial curve, poor fit] |  |
| O=c1[nH]c2ccc(Br)cc2c(-c2ccccc2)c1CN1CCOCC1 | inconclusive: 31.6 µM [inhibitor, partial curve] |  |
| CCc1ccc(NCc2cc3cc(OC)c(OC)cc3n(CC(=O)Nc3cc(C)ccc3C)c2=O)cc1 | inconclusive: 35.5 µM [inhibitor, partial curve] |  |
| O=C(c1ccc(Br)cc1)N1CCN(c2ccccn2)CC1 | inconclusive: 0.398 µM [inhibitor, full curve, poor fit] |  |
| C=CCNc1nc(Nc2ccc(Cl)cc2)nc(OC)n1 | inconclusive: 35.5 µM [inhibitor, partial curve, poor fit] |  |

Some of the entries so far, bar-delimited:
SMILES | Potency | activity change, negative = inhibition
O=C(NNC(=S)Nc1ccc(Cl)cc1Cl)c1ccc(N2CCOCC2)c([N+](=O)[O-])c1 |  | inactive: -18%
O=C(c1ccc(Br)cc1)N1CCN(c2ccccn2)CC1 | inconclusive: 0.398 µM [inhibitor, full curve, poor fit] | 
